Values quoted from earlier work as cited in patent publication US20230241060A1, “GLUCOCORTICOID-SPARING AGENT” (METRIOPHARM AG, priority 2020, published 2023).
At least one structure is not confirmed: it was looked up by name or label, or the drawing left a doubt.

Details: cited from earlier work

Row | SMILES | glucocorticoid potency in comparison to cortisol | potency relative to prednisolone
1 | C[C@@H]1C[C@H]2[C@@H]3CCC4=CC(=O)C=C[C@]4(C)[C@@]3(F)[C@@H](O)C[C@]2(C)[C@@]1(O)C(=O)CO [Dexamethasone, dexamethasone] | about 30 times the potency of cortisol | about 6 times
2 | C[C@]12CCC(=O)C=C1CC[C@@H]1[C@@H]2C(=O)C[C@@]2(C)[C@H]1CC[C@]2(O)C(=O)CO [cortisone, 17-hydroxy-11-dehydro-corticosterone] | less potent | 
3 | C[C@H]1C[C@@H]2[C@H]([C@@H](O)C[C@@]3(C)[C@H]2CC[C@]3(O)C(=O)CO)[C@@]2(C)C=CC(=O)C=C12 [methylprednisolone] | five-fold | 
